US6211151A, “Peptides with organo-protective activity, a process for preparation thereof and their use in therapy” (priority 1992, dated 2001)
Like-named read-outs stand apart in the source and are kept apart here. At least one peptide structure holds a part that was inferred or is arguable (an end, a ring closure or a residue). No end group written: not given here.

Tests used:
[1] = tested on: Albino Wistar (male) rats; assay: Gastric ulcer induced by restraint stress; format: in vivo, rat; details: 10 μg or 10 ng/kg b.w., i.p. or i.g., 1 hour before 48 hours immobilization; even at 10 ng/kg
Procedure: 1.) Gastric ulcer induced by restraint stress
Albino Wistar (male) rats (180-200 g), were used in the experiments. All the animals were immobilized in a supine position for 48 hours at room temperature. Immediately thereafter they were sacrified and the lesions measured. The peptides Seq. Id. No: 4, 6 and 2 were applied in dosage of 10 μg or 10 ng/kg b.w., i.p. or i.g. 1 hour before noxious procedure.

[2] = tested on: Adult female Albino rats of Wistar strain; assay: Haemorrhagic shock b) blood pressure lowered to 30-35 mm Hg by controlled blood removal; format: in vivo, rat; details: 10.0 μg or 10.0 ng/kg b.w. i.v. after 5 minutes at 30-35 mm Hg
[3] = tested on: Adult female Albino rats of Wistar strain; assay: Haemorrhagic shock a) bleeding until death; format: in vivo, rat; details: higher dose (10.0 μg/kg b.w., i.p.), 15 min. before bleeding
[4] = tested on: NMRI-Hannover mice; assay: Influence on lethal radiation (whole body, 9 Gy); format: in vivo; details: 20 μg/kg b.w.; for survival relative to the control data: 9 Gy
[5] = tested on: Calovo; assay: Antiviral activity in new-born mice; format: in vivo; details: simultaneously with virus (0)
[6] = tested on: Albino Wistar (female) rats; assay: Cysteamine model of ulcer; format: in vivo, rat; details: 1.0 μg, 100 ng and 50 ng/kg b.w., i.p. and i.g.; cysteamine 400 mg/kg s.c.; 24 hours
[7] = tested on: NMRI-Hannover male mice; assay: Model of Parkinson disease: MPTP model; format: in vivo
[8] = tested on: NMRI-Hannover female mice; assay: Influence on vitamin A induced malformation; format: in vivo; details: macroscopic examination, vitamin A alone 36 of 54
Procedure: 12. Influence on induced malformation
NMRI-Hannover female mice, two months old, 25 g b.w., but not previously exposed to copulation were used in all experiments. The female mice in the estrus phase were mated overnight with well experienced healthy male mice. The mice were sacrified after 20 days of pregnancy.
Vitamin A was applied in a dose of 15700 U/kg b.w., i.m., at tenth day of the pregnancy (0.05 ml/kg b.w.). Peptide Seq.Id.No: 4 was given simultaneously in a dosage of 10 μg or 10 ng/kg b.w.,i.p.
Control: saline 5.0 ml/kg b.w., i.p.
Animals non treated with vitamin A receiving at the same time i.p. saline or peptide 4 in the same dosage served as healthy control.

[9] = tested on: West Nile; assay: Antiviral activity in new-born mice; format: in vivo; details: simultaneously with virus (0)
[10] = tested on: Male Wistar rats; assay: Antidepression activity: forced swimming test according Porsolt; format: in vivo, rat
[11] = tested on: Male Albino rats of Wistar strain; assay: Effect on fracture healing (tibia); format: in vivo, rat; details: 10.0 μg/kg b.w., i.p., 1 hour before injury then once daily
[12] = tested on: TBE (=Tick Borne Encephalitis); format: in vivo, mice; details: simultaneously with virus (0)
[13] = tested on: LCM (Limphatic choriomeningitis); assay: Antiviral activity in new-born mice; format: in vivo; details: simultaneously with virus (0)
[14] = tested on: Dengue 3; assay: Antiviral activity in new-born mice; format: in vivo; details: simultaneously with virus (0)
[15] = tested on: Hepatitis A; assay: Antiviral activity in new-born mice; format: in vivo; details: simultaneously with virus (0), peroral viruses application
[16] = tested on: Dengue 1; assay: Antiviral activity in new-born mice; format: in vivo; details: simultaneously with virus (0)
[17] = tested on: NMRI-Hannover mice; assay: Model of Parkinson disease: reserpine model; format: in vivo; details: pretreatment with peptide, 10 μg or 10 ng/kg b.w., i.p. 15 minutes before reserpine 5 mg/kg i.p.
[18] = tested on: Herpes type 1; assay: Antiviral activity in new-born mice; format: in vivo; details: simultaneously with virus (0)
[19] = tested on: Sinbis; assay: Antiviral activity in new-born mice; format: in vivo; details: simultaneously with virus (0)
[20] = tested on: Male albino rats, Wistar strain; assay: Effect on experimental burns (nasal mucosa, glowing cauter); format: in vivo, rat; details: 10 μg/kg b.w., i.p. 1 hour before injury
[21] = tested on: Bhania; assay: Antiviral activity in new-born mice; format: in vivo; details: simultaneously with virus (0)
[22] = tested on: Dengue 4; assay: Antiviral activity in new-born mice; format: in vivo; details: simultaneously with virus (0)
[23] = tested on: Wistar male rats; assay: Turpentine induced buccal edemas; format: in vivo, rat; details: 10 μg/kg b.w., i.p. and i.g., 1 hour before turpentine; measured 24 hours after induction
Procedure: 3. Turpentine induced buccal edemas
Wistar male rats (180-240 g), N=10 in each group. Turpentine was given intramucosally 0.02 ml/rat. Control: 0.9% saline intramucosally (0.02 ml/rat, 2×). Peptides Seq. Id. No: 2 and 4 were applied in a dose of 10 μg and 10 ng/kg, i.p. and i.g., 1 hour before turpentine. Buccal edemas were measured 24 hours after edema induction. Statistical analysis: Mann-Whitney test. The investigated peptides were effective in a dosage of 10 μg/kg b.w.

[24] = tested on: Dengue 2; assay: Antiviral activity in new-born mice; format: in vivo; details: simultaneously with virus (0)
[25] = tested on: Male Albino rats; assay: Surgery: effect on skin incissions; format: in vivo, rat
[26] = peptide 2.0 μg/kg b.w. once i.c.
[27] = peptide 2.0 μg/kg b.w. once i.p., virus i.c.
[28] = posttreatment, 15 min. after each MPTP
[29] = pretreatment, 1.5 μg and 15.0 ng/kg b.w., i.p., 15 min. before each MPTP

EPPPLKPA [Seq. Id. No: 6]
protection against restraint stress gastric lesions [1]: strongly protective

LEPPPLKPADALGV [Seq. Id. No: 4]
blood pressure values vs controls [2]: significantly raised and sustained | death [2]: complete death abolition | fatal blood volume loss vs control [3]: significantly higher | survival relative to the control data ([4]; i.p. 1 hour after irradiation): no difference | survival relative to the control data ([4]; i.p. 1 hour before irradiation): significant survival | increase in LD100 relative to the control ([4]; i.p. 1 hour before irradiation, controls LD100/12): 70% | period (days) until all virus infected mice succumbed [5, 26]: 15 days | period (days) until all virus infected mice succumbed [5, 27]: 15 days | protection against cysteamine ulcer [6]: strong and dose dependent protection | akinesia and tremor [7, 28]: markedly diminished | further development of MPTP catalepsy [7, 28]: strongly prevented | mortality after MPTP ([7]; pretreated as well as posttreated animals, usual mortality 50% after one MPTP application): decreased | akinesia and tremor appearance [7, 29]: diminished | catalepsy development [7, 29]: strongly abolished | Number of malformated fetuses ([8]; vitamin A + peptide 10 ng/kg i.p., total number of fetuses 36): 13 | Number of malformated fetuses ([8]; vitamin A + peptide 10 μg/kg i.p., total number of fetuses 18): 1 | period (days) until all virus infected mice succumbed [9, 26]: 20 days | period (days) until all virus infected mice succumbed [9, 27]: 20 days | dose reponse of effect on Ti ([10]; 1 pg/kg): effect in disappearance | dose reponse of effect on Ti ([10]; 10 pg/kg): effect still present | dose reponse of effect on Ti ([10]; 10 μg to 10 ng/kg): full effect | duration of effect on Ti ([10]; after 16 days): still present | time of immovability (Ti) ([10]; i.p. after pretest session and one hour before experiment, 5 minutes observation, control about 150 sec.): 60 to 70 s | local posttraumatic hematome vs control [11]: consistently lower | restoration of lesioned function [11]: restored their lesioned function quite sooner | fracture healing rate ([11]; days 5, 8, 12, 30): significantly improved healing rate | period (days) until all virus infected mice succumbed [12, 26]: 20 days | period (days) until all virus infected mice succumbed [12, 27]: 20 days | period (days) until all virus infected mice succumbed [13, 26]: 20 days | period (days) until all virus infected mice succumbed [13, 27]: 20 days | period (days) until all virus infected mice succumbed [14, 26]: 20 days | period (days) until all virus infected mice succumbed [14, 27]: 20 days | period (days) until all virus infected mice succumbed [15, 26]: 20 days | period (days) until all virus infected mice succumbed ([15]; peptide 2.0 μg/kg b.w. once i.p.): 20 days | period (days) until all virus infected mice succumbed [16, 26]: 20 days | period (days) until all virus infected mice succumbed [16, 27]: 20 days | hypokinesia, rigidity (catalepsy) and tremor [17]: significant reduction | period (days) until all virus infected mice succumbed [18, 26]: 20 days | period (days) until all virus infected mice succumbed [18, 27]: 20 days | period (days) until all virus infected mice succumbed [19, 26]: 20 days | period (days) until all virus infected mice succumbed [19, 27]: 20 days | normal nasal respiration [20]: only slightly impaired | posttraumatic swelling of the snout [20]: only very modest posttraumatic swelling | survival ([20]; controls regularly died within nine postwounding days): undisturbed | period (days) until all virus infected mice succumbed [21, 26]: 20 days | period (days) until all virus infected mice succumbed [21, 27]: 20 days | period (days) until all virus infected mice succumbed [22, 26]: 20 days | period (days) until all virus infected mice succumbed [22, 27]: 20 days | effect on buccal edemas [23]: effective | protection against restraint stress gastric lesions [1]: strongly protective | period (days) until all virus infected mice succumbed [24, 26]: 20 days | period (days) until all virus infected mice succumbed [24, 27]: 20 days | healing of skin wounds ([25]; 1.0 μg and 1.0 ng/kg b.w. intradermally immediately after injury, wounds with and without surgical clips): prominent healing effect | development of reticulin fibres vs control ([25]; after 5 days): significantly better developed reticulin fibres | number of inflammatory cells vs control ([25]; after 5 days): smaller number of inflammatory cells
